The text below walks through data of publication PMC5615036, “Crystal structure of an ASCH protein from Zymomonas mobilis and its ribonuclease activity specific for single-stranded RNA”.

Where a chain is given by its changes, count along the chain named. For some of these results: Weaker means in comparison with the reference protein, sequence or condition of that experiment. Tags and fusion partners may be left off the protein sequences shown. For some of these results: The exact form of at least one protein or probe is not confirmed. For some of these results: At least one verdict was read from the data and is not stated in words by the source.

What all share (assay): EMSA
(In general: Mobility shift assays separate free from complexed probe on a gel.)

Data set [1] deals with T1, ZmASCH K53E (Zymomonas mobilis ZM4) (UniProt Q5NP14).
T1 sequence (looked up): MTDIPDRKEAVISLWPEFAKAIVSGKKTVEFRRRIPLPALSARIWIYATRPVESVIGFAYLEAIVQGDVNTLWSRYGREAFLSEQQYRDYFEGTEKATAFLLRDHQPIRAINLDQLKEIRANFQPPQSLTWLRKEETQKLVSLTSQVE
Conditions: 10 mM Mg2+, EMSA: 20 mM Tris-HCl pH 7.5, 10 mM Mg acetate, 300 mM KCl, 100 ng/uL BSA, 100 ng/uL heparin, 30 min at 310 K, recombinant protein, residues 1-148, protein details: N-terminal His6, label: 5'-32P.

The target in data set [2] is T2, ZmASCH S128A (Zymomonas mobilis ZM4) (UniProt Q5NP14).
T2 sequence (looked up): T1 sequence (looked up) with E53K, S128A
Conditions: 10 mM Mg2+, lesser decrease than K53E, EMSA: 20 mM Tris-HCl pH 7.5, 10 mM Mg acetate, 300 mM KCl, 100 ng/uL BSA, 100 ng/uL heparin, 30 min at 310 K, recombinant protein, residues 1-148, protein details: N-terminal His6, label: 5'-32P.

Data set [3] has as its target T3, ZmASCH Y47F (Zymomonas mobilis ZM4) (UniProt Q5NP14).
T3 sequence (looked up): T1 sequence (looked up) with Y47F, E53K
Conditions: 10 mM Mg2+, substantially decreased, EMSA: 20 mM Tris-HCl pH 7.5, 10 mM Mg acetate, 300 mM KCl, 100 ng/uL BSA, 100 ng/uL heparin, 30 min at 310 K, recombinant protein, residues 1-148, protein details: N-terminal His6, label: 5'-32P.

The target in data set [4] is T4, ZmASCH wild-type (Zymomonas mobilis ZM4) (UniProt Q5NP14).
T4 sequence (looked up): T1 sequence (looked up) with E53K
Conditions: 10 mM Mg2+, RNA is degraded; EMSA: 20 mM Tris-HCl pH 7.5, 10 mM Mg acetate, 300 mM KCl, 100 ng/uL BSA, 100 ng/uL heparin, 30 min at 310 K; recombinant protein; residues 1-148; protein details: N-terminal His6; label: 5'-32P.

Turning to “ATCAGCTCGTCACAACATTACTTCATCAAC [ssDNA(30mer)]”, the binding result in data set [1] (single-stranded DNA), in data set [2] (single-stranded DNA) and in data set [3] (single-stranded DNA) was “binds more weakly” throughout.

Consider “AUCAGCUCGUCACAACAUUACUUCAUCAAC [ssRNA(30mer) (= probe 8)]”, for which the binding result in data set [1] was “binds more weakly”; in data set [2], “binds more weakly”; in data set [3], “binds more weakly”; in data set [4], “binds”.
